# Library screen at single concentrations

Amino acid sequences for entries named in this document (tags omitted). Residues count along the entry.
UniProt Q8IDJ8, 1-583: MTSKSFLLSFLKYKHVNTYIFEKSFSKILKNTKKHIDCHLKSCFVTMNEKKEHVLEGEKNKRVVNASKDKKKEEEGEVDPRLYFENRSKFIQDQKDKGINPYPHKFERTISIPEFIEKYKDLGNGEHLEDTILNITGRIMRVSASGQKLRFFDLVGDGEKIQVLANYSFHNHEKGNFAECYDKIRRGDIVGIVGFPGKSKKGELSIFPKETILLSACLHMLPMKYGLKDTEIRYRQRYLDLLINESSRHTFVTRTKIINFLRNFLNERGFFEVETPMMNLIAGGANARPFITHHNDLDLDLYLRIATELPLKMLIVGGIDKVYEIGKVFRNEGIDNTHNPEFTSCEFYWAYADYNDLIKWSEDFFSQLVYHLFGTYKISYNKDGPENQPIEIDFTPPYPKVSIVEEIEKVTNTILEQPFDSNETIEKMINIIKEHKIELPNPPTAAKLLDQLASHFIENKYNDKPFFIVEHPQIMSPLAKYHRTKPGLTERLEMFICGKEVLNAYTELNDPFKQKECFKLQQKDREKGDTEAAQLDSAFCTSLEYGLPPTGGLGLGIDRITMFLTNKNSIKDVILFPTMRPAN

The values are deposited in ChEMBL (CHEMBL3988442, “University of Dundee, Small-Polar-MMV Screening Library” (2021)).

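Lysine-tRNA ligase, Plasmodium falciparum 3D7 (UniProt Q8IDJ8). Enzyme assay of the cytosolic lysyl-tRNA synthetase in 384-well plates, read by luminescence. Tested at 30 µM. Higher reads as stronger inhibition, judged from the few compounds that gave an IC50. Size under these conditions: about 69,000 compounds, about 49 of them at 50% or above in at least one test.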

The filed quantity is “Percent Effect” (%).
The record does not define 0% and 100%; most values in the screen are far below 50% and negative numbers occur (in some assays of this library far below -100).
This is an unselected part of the compounds tested.

| structure | percent effect |
|---|---|
| `O=C1CCC2(CCCN(C(=O)c3cscn3)C2)CN1CCc1c[nH]cn1` (stereo not shown) | 1.882 |
| `CN(C)CCNc1cc(-c2ccccc2C(N)=O)c2cc[nH]c2n1` | -2.278 |
| `CCNC(=O)CS(=O)(=O)NC1CCC(C)CC1` (stereo not shown) | -2.219 |
| `Cc1ccccc1C(=O)N1CCOCC1CN(C)C` (stereo not shown) | 5.621 |
| `c1cnc(-c2nc(CN3CCN(CC4CC4)CC3)cs2)nc1` | -1.301 |
| `CN(C)CCn1c2c(ccc1=O)CCN(Cc1ccncc1)CC2` | 3.805 |
| `Cc1noc(C)c1CN1CCCCC1c1nc(-c2ccccc2)no1` (stereo not shown) | 4.052 |
| `CC(c1cccnc1)N1CCN(CCO)CC1` (stereo not shown) | -0.9182 |
| `O=C(NCc1ccccn1)[C@H]1COC[C@H]2CN(C3CCCC3)C[C@H]21` | -2.933 |
| `CN(C)C(=O)c1cc2c(nc1NCC1CC1)CCN(CC1CC1)CC2` | 3.033 |
| `Cc1cc(C)c(CNC(=O)NCCNc2cnccn2)c(=O)[nH]1` | -1.742 |
| `NC(=O)c1ccc(N2CCCCC2)c(NC(=O)c2ccc(Br)cc2)c1` | -0.4676 |
| `CC(CNC(=O)c1cc(C2CC2)on1)N1CCc2ccccc21` (stereo not shown) | 2.506 |
| `COc1cc(C)nc(N2CCN(C(=O)c3ccc(Cl)o3)CC2)n1` | 0.4816 |
| `CCC(C)NC(=O)CN1CCOCC1` (stereo not shown) | 6.253 |
| `N#CCCn1nc(C(F)(F)F)c2c1CCC2` | 3.292 |
| `O=C(O)CCc1ccc(S(=O)(=O)Nc2cnn(CC3CC3)c2)cc1` | 1.727 |
| `O=S(=O)(NCC1CCOC1)N1CCc2ccccc2C1` (stereo not shown) | 11.2 |
| `CCOc1ccc(C2C3=C(O)OCC3=Nc3nc(SC)nc(N)c32)cc1` (stereo not shown) | 0.09939 |
| `CC(C)NC(=O)CNC(C)COc1ccccc1` (stereo not shown) | 2.316 |
| `CCc1nnc(C(C)N2CCN(CCC(=O)NC3CC3)CC2)o1` (stereo not shown) | -2.396 |
| `O=C1CO[C@H]2CN(S(=O)(=O)c3ccccc3)C[C@H]2N1CC1CCCCC1` | 10.24 |
| `CCOCC1CN(C(=O)Cc2ccccn2)Cc2cn(C)nc21` (stereo not shown) | 1.085 |
| `Cc1cc(N2CCC(C(=O)N(C)C)CC2)nc(-c2ccncc2)n1` | 0.3484 |
| `O=C(c1ccncc1F)N1C[C@H]2CC[C@@H]1CN(Cc1cccnc1)C2` | 7.517 |
| `CN(C)Cc1nn(C)c2c1CN(C(=O)c1cccc(C#N)c1)C2` | 4.68 |
| `CC(C)(C)NC(=O)CCOc1cccc(F)c1` | -0.9073 |
| `O=C(C1=CCCC1)N1C[C@@H]2COC[C@]2(COc2ncccc2F)C1` | 3.76 |
| `CC1c2ncc(COc3cccnc3)n2CCN1C(=O)C1=CCCC1` (stereo not shown) | 2.321 |
| `CC(C)CC(=O)N1CCCC1c1nccnc1Nc1ncccn1` (stereo not shown) | 1.933 |
| `COC(=O)c1ccc(N(C(=O)c2ccncc2)C(C)C)c(C)c1` | 2.482 |
| `CN(Cc1ccccc1)C(=O)Cn1nc(N2CCOCC2)ccc1=O` | 1.586 |
| `CC(C)[C@H]1CN(CC2CCC2)C[C@@H]1NC(=O)c1ccc(=O)[nH]c1` | -0.187 |
| `O=C(c1ccco1)N1CCOC2(COCCN(c3ncccn3)C2)C1` (stereo not shown) | 0.5375 |
| `CCc1nc(CN2CCCN(Cc3noc(C4CC4)n3)CC2)cs1` | 3.813 |
| `COc1cc(S(=O)(=O)N2C[C@@H](C)[C@@](C)(O)C2)c(C)cc1C` | 1.272 |
| `COc1cccc(CN2CCCC2c2ccc[nH]2)c1` (stereo not shown) | 2.361 |
| `CCCc1nc(NCCCOCC)c2c(n1)c(C)nn2CC` | -1.496 |
| `CCCn1nc(C(=O)N(C)Cc2nnc3n2CCC3)ccc1=O` | 2.79 |
| `CN1CCC(NC(=O)c2cc(F)cc(Cl)c2O)C1=O` (stereo not shown) | 1.775 |
| `Cc1ccc(C(=O)NC2CCN(Cc3noc(C(C)C)n3)CC2)s1` | 5.72 |
| `COC(=O)c1ccc(N2CCN(C(=O)C3CC3)C(C)C2)cc1` (stereo not shown) | -2.732 |
| `Cc1ccc(CSc2nc(N)cc(NCCS(=O)(=O)N(C)C)n2)cc1` | 5.521 |
| `Cn1cc(CN2CCC[C@]3(C[C@H](Oc4ncccc4F)CO3)C2)cn1` | 5.239 |
| `Cc1c(CN2Cc3nccn3CC2c2ccccc2)cnn1C` (stereo not shown) | 1.362 |
| `O=C(c1cncnc1)N1C[C@@H]2CC[C@H](Oc3cccc(F)c3)[C@@H]2C1` | 1.179 |
| `CCN1CCn2c(-c3cccc(F)c3)cnc2C12CCN(C(C)=O)CC2` | 2.854 |
| `c1ccc(-c2nc(CCNCc3ccncc3)co2)cc1` | 2.558 |
| `CC(C)CNC(=O)[C@H]1C[C@@H]2CN(C(=O)Nc3ccc(F)cc3)C[C@H]1O2` | 1.126 |
| `Cc1ccc(C(=O)N(Cc2ccccc2F)C2CC2)c(=O)[nH]1` | 0.4693 |
| `O=C(c1cnccn1)N1C[C@@H](c2ccccc2)[C@@]2(CCNC2=O)C1` | 15 |
| `O=C(c1ccccc1)N1CCCN(C(=O)c2ncncc2Cl)CC1` | 8.874 |
| `O=C(COc1ccc2c(c1)OCO2)NCc1ccco1` | 1.182 |
| `COc1cccc(CNCc2c(C)nc3sc(C)cn23)c1OC` | 4.812 |
| `CCC(Nc1ccc(Oc2ccccc2OC)cc1)C(N)=O` (stereo not shown) | 6.079 |
| `CNC(=O)c1ccc(-c2ccc(CNC(=O)COC)cc2)nc1C` | 0.3855 |
| `COc1c(C)cnc(CN2CCOC(CNc3cccnn3)C2)c1C` (stereo not shown) | 0.4921 |
| `CC(C)S(=O)(=O)NCC1CCCN(C(=O)c2ccc(Cl)cc2)C1` (stereo not shown) | -0.23 |
| `Cc1cc(C(=O)N2CCCC3(C=Cc4ccccc4O3)CC2)cc(=O)[nH]1` (stereo not shown) | 1.274 |
| `Cc1ccc(NC(=O)CNc2ccccc2C(N)=O)c(C)c1` | 0.9939 |
| `Cc1ccc(CNCC2CCN(CCO)CC2)cc1` | -4.201 |
| `Cc1[nH]nc(CCC(=O)NCC2CCCN(C3CCCC3)C2)c1C` (stereo not shown) | 0.6948 |
| `CCN1CCCC(C)(C(=O)NCCc2n[nH]c(=O)[nH]2)C1` (stereo not shown) | 6.518 |
| `CC(C)c1nn(C)cc1CNCc1cccnc1N(C)C` | 4.942 |
| `COc1ccc(C)cc1CN(CC(N)=O)C(C)C` | 0.738 |
| `CCN(Cc1nc2c(cnn2C)c(=O)[nH]1)c1cc(C)cc(C)c1` | 1.635 |
| `Cc1cc(C)nc(N2CCCC(c3nccn3CCCN(C)C)C2)c1` (stereo not shown) | 3.782 |
| `CCOCC(=O)N1CCC2(CC1)CC(c1ccccc1)CO2` (stereo not shown) | 3.366 |
| `CNC(=O)CN1CCCC1c1ccccc1Br` (stereo not shown) | 6.097 |
| `CC(Nc1cccc2c1OCCO2)C(=O)NC(N)=O` (stereo not shown) | 6.508 |
| `O=C(CN1CCOC(Cn2cccn2)C1)Nc1ccncc1` (stereo not shown) | -0.9242 |
| `O=C(Cc1ccccc1)N1CCCC2(COCCN(CC3CC3)C2)C1` (stereo not shown) | 4.886 |
| `Cc1cc(C)n(C2CN(C(=O)CN3C(=O)CSc4ccccc43)C2)n1` | 1.395 |
| `Cc1ncccc1-c1cc2cccnc2n1CCCNC(=O)C1CC1` | -1.128 |
| `COc1cccc(NC(=O)c2nc3ccccc3n(C)c2=O)c1` | 4.501 |
| `CCc1nccn1C1CCCN(C(=O)c2ccn(C)c(=O)c2)C1` (stereo not shown) | 5.823 |
| `O=C(NC1CCCC1)c1nc2c(o1)CN(CCO)C2` | -0.2857 |
| `CC(C)N(C)Cc1cnc2n1CCN(Cc1cccc(C#N)c1)C2` | 0.8522 |
| `CCOC(=O)COC1CCN(C(C)=O)CC(=O)N(C)c2ccccc21` (stereo not shown) | 4.293 |
| `CC(C)CNC(=O)[C@H]1CCS(=O)(=O)[C@@H]2CN(Cc3cccc(Cl)c3)C[C@H]12` | 2.445 |
| `COCCNS(=O)(=O)c1c(C)sc2ccccc12` | 3.711 |
| `CCc1c(NCc2ccc(F)cc2)cnn1CC(C)C` | 6.649 |

5 of the entries, repeated:

{"structure": "CN(C)CCNc1cc(-c2ccccc2C(N)=O)c2cc[nH]c2n1", "percent effect": -2.278}
{"structure": "CCC(Nc1ccc(Oc2ccccc2OC)cc1)C(N)=O", "stereo": "stereo not shown", "percent effect": 6.079}
{"structure": "COc1cccc(NC(=O)c2nc3ccccc3n(C)c2=O)c1", "percent effect": 4.501}
{"structure": "CC(C)c1nn(C)cc1CNCc1cccnc1N(C)C", "percent effect": 4.942}
{"structure": "CCCc1nc(NCCCOCC)c2c(n1)c(C)nn2CC", "percent effect": -1.496}